PubChem BioAssay AID1259405 | NCATS | 2018
Purpose: 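Mouse-designed siRNAs used to find CHO productivity engineering targets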 (primary screen). System: Chinese hamster CHO-K1 ovary cells with stable secreted eGFP expression. Reagent: single siRNA against mouse genes, 0.8 pmol siRNA per well (2 µl of 400 nM stock). Time to read-out: 3 days. Detection: 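Per-well intracellular GFP measured by laser scanning cytometry, plus viability from ATP luminescence, each relative to plate median of non-targeting control wells, in %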. Scale: GFP, % of control: higher = more GFP per well, higher productivity; viability (ATP), % of control: higher = more viable cells (more ATP). Call rule: 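a knock-down is called active if GFP reaches 120% or more of non-targeting control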.
In all, the deposit lists about 50,000 reagents; below is a part drawn at random. Over the whole deposit, about 4,000 (8%) were called active. 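Mouse siRNA library applied to hamster cells; one well for each siRNA.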

target gene	PubChem SID	GFP, % of control	viability (ATP), % of control	Call
Chat	SID363570404	113	104	inactive
Chat	SID363579204	105	135	inactive
Chat	SID363583076	79	83.1	inactive
Srek1	SID363554870	43.5	67.6	inactive
Srek1	SID363568317	61.4	78.9	inactive
Srek1	SID363586376	43.4	44.7	inactive
Gpr180	SID363539732	98.1	113	inactive
Gpr180	SID363561033	75.4	82.1	inactive
Gpr180	SID363565123	92.6	56.9	inactive
Csf3r	SID363568802	108	96.4	inactive
Csf3r	SID363576194	50.3	56.2	inactive
Csf3r	SID363579010	71.1	46.8	inactive
Araf	SID363570996	137	81.3	active
Pigk	SID363570704	96.9	105	inactive
Pigk	SID363579504	105	156	inactive
Pigk	SID363583376	82.3	102	inactive
Clec3b	SID363553674	53	58.6	inactive
Clec3b	SID363561631	79.5	66.3	inactive
Clec3b	SID363565369	84	73.1	inactive
Il21	SID363540182	80	99.6	inactive
Il21	SID363541934	38.4	42.9	inactive
Il21	SID363566850	50.3	54.8	inactive
Tnfrsf4	SID363568814	67.2	78.7	inactive
Tnfrsf4	SID363576206	61.5	71.5	inactive
Tnfrsf4	SID363579022	66.1	57	inactive
Fundc2	SID363542449	65	74.3	inactive
Fundc2	SID363551940	36.5	54.1	inactive
Fundc2	SID363559545	76.1	73.1	inactive
Klhl32	SID363540214	67	77.7	inactive
Klhl32	SID363541966	56.1	58.2	inactive
Klhl32	SID363566882	90.3	67.1	inactive
Gnal	SID363545381	58.6	63.8	inactive
Gnal	SID363548894	67.5	80.6	inactive
Gnal	SID363562700	22.1	27	inactive
Vstm2l	SID363544067	34.9	41.5	inactive
Vstm2l	SID363550395	72.1	71.5	inactive
Vstm2l	SID363556944	47.7	75.2	inactive
Dcaf10	SID363542912	88.2	54.8	inactive
Dcaf10	SID363546429	79.7	90.6	inactive
Dcaf10	SID363548185	45.8	57.2	inactive
Slc18a3	SID363574732	86.7	55.4	inactive
Slc18a3	SID363575788	87.7	77.8	inactive
Slc18a3	SID363580364	151	94.1	active
Actr2	SID363540997	68.3	61.1	inactive
Actr2	SID363555624	66	74	inactive
Actr2	SID363565913	87	72.4	inactive
Scamp1	SID363545736	69.6	58.5	inactive
Scamp1	SID363549249	92.1	84	inactive
Scamp1	SID363563055	31.9	36.7	inactive
Alkbh2	SID363546774	34	49.2	inactive
Alkbh2	SID363548530	37	62.1	inactive
Alkbh2	SID363560708	88	91	inactive
Sh2d2a	SID363554971	58.4	85.1	inactive
Sh2d2a	SID363568418	80.9	71.3	inactive
Sh2d2a	SID363586477	60.3	59.6	inactive
Ly6h	SID363562234	87.9	82.2	inactive
Ly6h	SID363567372	96.1	93.8	inactive
Ly6h	SID363584729	69.8	73.7	inactive
